# Test results as given in PubChem BioAssay AID1347076 (National Center for Advancing Translational Sciences (NCATS), 2019).
# In all, about 400,000 compounds went through this assay and about 13,000 (3.2%) were called active. The shares of active, inactive and inconclusive entries below differ from those in the screen. The call rests on the fitted dose curve; in most records, active means well fitted cell-killing curve with a large enough effect; inconclusive means small, poorly fitted or top-dose-only effect, or effect the other way; inactive means flat fitted curve, though single readings scatter. Potencies beside an inconclusive call are fits to weak or partial responses and may not hold up.
# Assay: qHTS assay for MDR1-selective chemotherapeutics: Primary screen using the drug-selected MDR subline cells KB-V1; further: nearly all actives have a fitted effect of over 60% in size
# Details: KB-V1 MDR cells viability, CellTiter-Glo, 72 h; series mostly up to 46.1 µM
# How it was run: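 qHTS viability screen in drug-selected KB-V1 MDR cells: 72 h compound treatment at 37 degrees C, ATP luminescence end point.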
# Potency means the concentration at half of the fitted maximal effect.
row,SMILES,Potency
1,OCCCN1CCN(CCCOc2ccccc2-c2ccccc2)CC1,"inconclusive: 10.3 µM [cytotoxic, partial curve]"
2,CN(C)CCCOc1ccc(Cl)cc1Br,"inconclusive: 16.4 µM [cytotoxic, partial curve, poor fit]"
3,COc1ccc(NS(=O)(=O)c2ccc(N3CCCC3=O)cc2)cn1,"inconclusive: 14.6 µM [cytotoxic, partial curve]"
4,O=S(=O)(Nc1ccon1)c1ccc(Br)cc1,inactive
5,COc1cccc2c1C(=O)c1c(O)c3c(c(O)c1C2=O)CC(O)(C(C)=NNC(=O)c1ccc(Cl)c(Cl)c1)CC3OC1CC(N)C(O)C(C)O1 (centres undefined),active: 23.1 µM
6,Cc1ccc(C)c(S(=O)(=O)N2CCCCC2CCNC(=O)C(=O)NCc2ccccc2)c1 (centres undefined),"inconclusive: 6.51 µM [cytotoxic, partial curve, poor fit]"
7,O=C1c2ccccc2-c2c1c1ccccc1c(=O)n2-c1ccccc1,inactive
8,Cc1cc(C)c(S(=O)(=O)N2CCC3(CC2)OCCN3S(=O)(=O)c2cccs2)c(C)c1,"inconclusive: 23.1 µM [cytotoxic, partial curve, poor fit]"
9,O=C(CSc1nncs1)NCCNC(=O)CSc1nncs1,"inconclusive: 29.1 µM [cytotoxic, single point]"
10,CC(NC(=O)c1cccc(S(=O)(=O)N2CCc3ccccc3C2)c1)c1ccco1 (centres undefined),"inconclusive: 4.61 µM [cytotoxic, full curve]"
11,COc1ccccc1NS(=O)(=O)c1ccc(-c2cc(C)no2)s1,"inconclusive: 14.6 µM [cytotoxic, partial curve]"
12,O=C(Nc1ccc(F)cc1)C(c1ccnc2ccccc12)N1CCN(c2cccc(C(F)(F)F)n2)CC1 (centres undefined),"inconclusive: 20.6 µM [cytotoxic, partial curve, poor fit]"
13,Cc1cccc(/C=C(\C(=O)O)c2ccc(S(=O)(=O)N3CCCC3)s2)c1,inactive
14,CN(CC(=O)NCC1COc2ccccc2O1)S(=O)(=O)c1ccc(Cl)cc1 (centres undefined),"inconclusive: 18.4 µM [cytotoxic, partial curve, poor fit]"
15,CCOC(=O)N1CCC(NC(=O)c2cc(S(=O)(=O)N3CCC4(CC3)OCCO4)ccc2F)CC1,active: 23.1 µM
16,CN1CCN(Cc2c(O)ccc3cc(Br)ccc23)CC1,"inconclusive: 10.3 µM [rising, partial curve]"
17,Cc1ccc2c(c1)C(=O)N1[C@H]3c4cc(Br)ccc4OC[C@@H]3[C@H](c3ccccc3)[C@]1(C)C(=O)N2,"inconclusive: 25.9 µM [cytotoxic, single point]"
18,CC(=O)c1ccc(S(=O)(=O)N2CCN(c3nc(-c4ccccc4)nc4ccccc34)CC2)cc1,inactive
19,C/C(=N\NC(=O)c1csc(C)c1C)c1ccc(Cl)s1,inactive
20,O=C1C=C(NCc2ccccc2)CCC1,inactive
21,COc1ccc(-n2nnnc2SCC#CCO)cc1,"inconclusive: 29.1 µM [cytotoxic, single point]"
22,CC(=O)c1ccc(N2CCN(c3ccc4cc(S(=O)(=O)N5CCCCC5)ccc4n3)CC2)cc1,inactive
23,O=C(C1COc2ccccc2O1)N1CCN(c2nc3ccc([N+](=O)[O-])cc3s2)CC1 (centres undefined),inactive

row,SMILES,Potency
1,CNC(=S)Nc1ccc([N+](=O)[O-])cc1,"inconclusive: 0.0116 µM [cytotoxic, full curve, poor fit]"
2,Cc1ccc(/C=N/NC(=O)COc2ccccc2-c2ccccc2)cc1,active: 1.03 µM
3,COc1ccc(CNS(=O)(=O)c2cc3c4c(c2)C(C)C(=O)N4CCC3)cc1 (centres undefined),inactive
4,Cc1ccccc1NC(=O)CSc1nc(N2CCCCC2)nc(N2CCCCC2)n1,"inconclusive: 2.31 µM [cytotoxic, full curve]"
5,Cn1ncc(=S)[nH]c1=S,"inconclusive: 23.1 µM [rising, partial curve, poor fit]"
6,O=C(CSc1nnc(SCc2ccccc2)s1)N/N=C/c1ccc(Cl)cc1Cl,"inconclusive: 32.6 µM [cytotoxic, partial curve, poor fit]"
7,O=c1c2ccccc2nc2n1CCN2Cc1ccc(Cl)cc1,active: 4.61 µM
8,COc1ccc2c(C)cc(Sc3nnnn3-c3ccccc3)nc2c1,"inconclusive: 20.6 µM [cytotoxic, partial curve]"
9,COc1cccc(N2CCN(C(=O)c3ccc(CS(=O)c4ccccc4C)o3)CC2)c1 (centres undefined),"inconclusive: 1.16 µM [cytotoxic, full curve]"
10,COCCCNc1nnc(Cc2ccccc2)c2ccccc12,inactive
11,Cc1ccccc1-n1c(-c2ccco2)n[nH]c1=S,inactive
12,COc1ccccc1NC(=O)CN(c1ccccc1)S(=O)(=O)c1ccccc1,"inconclusive: 5.8 µM [cytotoxic, full curve, poor fit]"
13,COC(=O)c1cccc(OCCCN2CCC(C(O)(c3ccccc3)c3ccccc3)CC2)c1,"inconclusive: 5.8 µM [cytotoxic, partial curve]"
14,Nc1nc2ccccc2cc1C(=O)NCc1cccs1,active: 16.4 µM
15,Cc1ccc(-n2nc(C(=O)c3ccccc3)n3c(=O)c(Cc4ccccc4)nnc23)cc1,active: 16.4 µM
16,COc1cc(NC(=O)CSc2ccc(-c3cccnc3)nn2)cc(OC)c1,"inconclusive: 9.2 µM [cytotoxic, partial curve]"
17,COc1ccc(CNC(=O)CN2CCC(n3nnc4cc(F)ccc43)CC2)cc1,"inconclusive: 14.6 µM [cytotoxic, partial curve]"
18,CN(NC1CC(=O)N(c2ccccc2)C1=O)c1ccccc1 (centres undefined),inactive
19,O=C(c1cccnc1)N1CCN(C(=O)c2ccccc2F)CC1,"inconclusive: 14.6 µM [rising, single point]"
20,COC(=O)C1=C(C)Nc2nc3ccccc3n2C1c1ccccc1F (centres undefined),"inconclusive: 10.3 µM [cytotoxic, single point]"
21,N#Cc1nc(-c2ccc(COc3ccc(Cl)cc3)o2)oc1N1CCC(C(N)=O)CC1,"inconclusive: 29.1 µM [cytotoxic, single point]"
22,O=C(Nc1cccc(C(F)(F)F)c1)c1cccnc1N1CCN(c2ccccc2)CC1,"inconclusive: 10.3 µM [cytotoxic, partial curve, poor fit]"
23,CCOc1cc(C2NC(=O)NC(O)(C(F)(F)F)C2C(=O)c2ccccc2)ccc1OC (centres undefined),"inconclusive: 20.6 µM [cytotoxic, partial curve, poor fit]"

# Fetched by compound from the list above, two records:
row,SMILES,Potency
11,Cc1ccccc1-n1c(-c2ccco2)n[nH]c1=S,inactive
14,CN(CC(=O)NCC1COc2ccccc2O1)S(=O)(=O)c1ccc(Cl)cc1 (centres undefined),"inconclusive: 18.4 µM [cytotoxic, partial curve, poor fit]"

# (listing goes on)

row,SMILES,Potency
1,CCOC(=O)CSc1nc(C2CC2)cc(-c2ccc(Cl)cc2)c1C#N,active: 20.6 µM
2,COc1ccc(OC)c(S(=O)(=O)NCCS(=O)(=O)N2CCN(c3ccccc3)CC2)c1,"inconclusive: 6.51 µM [cytotoxic, full curve, poor fit]"
3,C/C(=N\NC(=O)CNC(=O)c1ccc(F)cc1)c1ccco1,"inconclusive: 25.9 µM [rising, single point]"
4,COc1cccc(CNC(=O)c2cccc(-n3c(C)nc4cccnc43)c2)c1OC,inactive
5,CCOC(=O)C1=CN(Cc2cccc(F)c2)S(=O)(=O)N(CC)C1c1ccc(Br)cc1F (centres undefined),"inconclusive: 29.1 µM [cytotoxic, single point]"
6,COc1ccc(Nc2oc(COc3ccccc3F)nc2C#N)cc1,inactive
7,NNC(=O)c1[nH]c2ccccc2c1-c1ccccc1,inactive
8,C#CCOCCOCCOCCNc1nc(N2CCN(C(=O)[C@H]([C@@H](C)CC)n3cc(CCC(=O)O)nn3)CC2)nc(N2CCN(C(=O)[C@H](CCCCN)n3cc(CCC(=O)O)nn3)CC2)n1,"inconclusive: 29.1 µM [rising, partial curve, poor fit]"
9,CCOc1ccccc1NC(=O)CC1Nc2cc(C)c(C)cc2NC1=O (centres undefined),"inconclusive: 29.1 µM [cytotoxic, single point]"
10,CCn1c(SCc2nnc(-c3ccccc3)o2)nnc1-c1ccc(S(=O)(=O)N2CCCC2)cc1,"inconclusive: 18.4 µM [cytotoxic, partial curve]"
11,CCCN1CCN(CCCNC(=O)CN2C(=O)C(CC)Oc3ccccc32)CC1 (centres undefined),inactive
12,COc1ccc(C2C(C(=O)c3ccc(C)o3)=C(O)C(=O)N2c2cc(C)on2)cc1OC (centres undefined),inactive
13,CCn1c(CCCc2ccc(OC)c(C)c2)n[nH]c1=S,inactive
14,COc1ccc(S(=O)(=O)Nc2cc3c4c(c2)CCC(=O)N4CCC3)cc1C,"inconclusive: 16.4 µM [cytotoxic, single point]"
15,Cn1c(N)c(C(=O)/C=C/c2ccccc2)c(=O)[nH]c1=O,inactive
16,COc1cc2sc3ccc(C#Cc4ccccn4)cc3c(=O)c2cc1OC,"inconclusive: 13 µM [cytotoxic, partial curve]"
17,CC(=O)Nc1ccc(/C=C/c2sc3ccccc3[n+]2CCCCI)cc1,inactive
18,C=CCn1c(SCC(=O)N2CCOCC2)nc2c([nH]c3ccccc32)c1=O,"inconclusive: 6.51 µM [cytotoxic, partial curve]"
19,Cc1ccc(C(C)C)c(OCc2ccc(C(=O)N/N=C/c3ccc(O)cc3O)cc2)c1,"inconclusive: 2.91 µM [cytotoxic, full curve, poor fit]"
20,Cn1nc(CC(=O)NCc2ccc(C(F)(F)F)cc2)c2ccccc2c1=O,"inconclusive: 20.6 µM [cytotoxic, partial curve, poor fit]"
21,COc1cc(C(=O)Nc2nc3ccccc3[nH]2)ccc1OC(F)F,"inconclusive: 20.6 µM [cytotoxic, single point]"
22,COc1ccc(NC(C)=O)c([N+](=O)[O-])c1[N+](=O)[O-],inactive
23,CC(=O)N1CCc2cc(S(=O)(=O)NCCC(=O)N3CCc4ccccc4C3)ccc21,active: 23.1 µM
